Test results published in article PMC12152192.
These are yes or no findings as the source states them, for the method shown. In cells and extracts the contact can be indirect. A yes stands for co-enrichment or nearness to the bait. Other partners may have been found. No binding means not detected with the bait.

Amino acid sequences for entries named in this document (tags omitted).
UniProt Q13489: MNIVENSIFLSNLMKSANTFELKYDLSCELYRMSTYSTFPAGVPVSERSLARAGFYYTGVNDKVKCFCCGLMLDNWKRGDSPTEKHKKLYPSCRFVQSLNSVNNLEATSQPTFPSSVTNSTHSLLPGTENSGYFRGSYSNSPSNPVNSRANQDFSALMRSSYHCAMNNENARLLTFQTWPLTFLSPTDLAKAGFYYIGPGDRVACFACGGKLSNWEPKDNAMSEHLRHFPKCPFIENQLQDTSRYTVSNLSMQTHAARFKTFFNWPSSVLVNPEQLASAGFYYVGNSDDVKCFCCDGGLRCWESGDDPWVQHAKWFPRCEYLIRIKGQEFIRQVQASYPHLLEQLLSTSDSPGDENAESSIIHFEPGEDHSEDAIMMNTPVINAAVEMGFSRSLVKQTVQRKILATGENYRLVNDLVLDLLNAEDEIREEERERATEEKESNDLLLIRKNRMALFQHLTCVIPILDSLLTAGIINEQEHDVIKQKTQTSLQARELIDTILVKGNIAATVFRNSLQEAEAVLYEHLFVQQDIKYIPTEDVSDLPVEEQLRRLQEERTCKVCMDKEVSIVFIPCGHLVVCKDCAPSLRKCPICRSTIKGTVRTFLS
UniProt P98170: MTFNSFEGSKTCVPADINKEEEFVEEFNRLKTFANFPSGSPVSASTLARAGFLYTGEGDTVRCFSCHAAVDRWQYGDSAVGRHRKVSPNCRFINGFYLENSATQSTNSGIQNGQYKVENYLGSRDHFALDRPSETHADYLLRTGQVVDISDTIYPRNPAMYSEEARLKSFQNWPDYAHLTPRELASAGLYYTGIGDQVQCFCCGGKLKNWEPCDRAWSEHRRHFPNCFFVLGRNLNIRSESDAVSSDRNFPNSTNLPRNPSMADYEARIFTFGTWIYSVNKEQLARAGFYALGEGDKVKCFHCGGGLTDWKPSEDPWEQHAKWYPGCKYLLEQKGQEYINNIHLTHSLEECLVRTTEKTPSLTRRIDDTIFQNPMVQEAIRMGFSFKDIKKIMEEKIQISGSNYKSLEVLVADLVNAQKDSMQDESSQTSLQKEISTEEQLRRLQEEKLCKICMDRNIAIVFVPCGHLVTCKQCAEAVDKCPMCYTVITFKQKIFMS
UniProt Q9NR09: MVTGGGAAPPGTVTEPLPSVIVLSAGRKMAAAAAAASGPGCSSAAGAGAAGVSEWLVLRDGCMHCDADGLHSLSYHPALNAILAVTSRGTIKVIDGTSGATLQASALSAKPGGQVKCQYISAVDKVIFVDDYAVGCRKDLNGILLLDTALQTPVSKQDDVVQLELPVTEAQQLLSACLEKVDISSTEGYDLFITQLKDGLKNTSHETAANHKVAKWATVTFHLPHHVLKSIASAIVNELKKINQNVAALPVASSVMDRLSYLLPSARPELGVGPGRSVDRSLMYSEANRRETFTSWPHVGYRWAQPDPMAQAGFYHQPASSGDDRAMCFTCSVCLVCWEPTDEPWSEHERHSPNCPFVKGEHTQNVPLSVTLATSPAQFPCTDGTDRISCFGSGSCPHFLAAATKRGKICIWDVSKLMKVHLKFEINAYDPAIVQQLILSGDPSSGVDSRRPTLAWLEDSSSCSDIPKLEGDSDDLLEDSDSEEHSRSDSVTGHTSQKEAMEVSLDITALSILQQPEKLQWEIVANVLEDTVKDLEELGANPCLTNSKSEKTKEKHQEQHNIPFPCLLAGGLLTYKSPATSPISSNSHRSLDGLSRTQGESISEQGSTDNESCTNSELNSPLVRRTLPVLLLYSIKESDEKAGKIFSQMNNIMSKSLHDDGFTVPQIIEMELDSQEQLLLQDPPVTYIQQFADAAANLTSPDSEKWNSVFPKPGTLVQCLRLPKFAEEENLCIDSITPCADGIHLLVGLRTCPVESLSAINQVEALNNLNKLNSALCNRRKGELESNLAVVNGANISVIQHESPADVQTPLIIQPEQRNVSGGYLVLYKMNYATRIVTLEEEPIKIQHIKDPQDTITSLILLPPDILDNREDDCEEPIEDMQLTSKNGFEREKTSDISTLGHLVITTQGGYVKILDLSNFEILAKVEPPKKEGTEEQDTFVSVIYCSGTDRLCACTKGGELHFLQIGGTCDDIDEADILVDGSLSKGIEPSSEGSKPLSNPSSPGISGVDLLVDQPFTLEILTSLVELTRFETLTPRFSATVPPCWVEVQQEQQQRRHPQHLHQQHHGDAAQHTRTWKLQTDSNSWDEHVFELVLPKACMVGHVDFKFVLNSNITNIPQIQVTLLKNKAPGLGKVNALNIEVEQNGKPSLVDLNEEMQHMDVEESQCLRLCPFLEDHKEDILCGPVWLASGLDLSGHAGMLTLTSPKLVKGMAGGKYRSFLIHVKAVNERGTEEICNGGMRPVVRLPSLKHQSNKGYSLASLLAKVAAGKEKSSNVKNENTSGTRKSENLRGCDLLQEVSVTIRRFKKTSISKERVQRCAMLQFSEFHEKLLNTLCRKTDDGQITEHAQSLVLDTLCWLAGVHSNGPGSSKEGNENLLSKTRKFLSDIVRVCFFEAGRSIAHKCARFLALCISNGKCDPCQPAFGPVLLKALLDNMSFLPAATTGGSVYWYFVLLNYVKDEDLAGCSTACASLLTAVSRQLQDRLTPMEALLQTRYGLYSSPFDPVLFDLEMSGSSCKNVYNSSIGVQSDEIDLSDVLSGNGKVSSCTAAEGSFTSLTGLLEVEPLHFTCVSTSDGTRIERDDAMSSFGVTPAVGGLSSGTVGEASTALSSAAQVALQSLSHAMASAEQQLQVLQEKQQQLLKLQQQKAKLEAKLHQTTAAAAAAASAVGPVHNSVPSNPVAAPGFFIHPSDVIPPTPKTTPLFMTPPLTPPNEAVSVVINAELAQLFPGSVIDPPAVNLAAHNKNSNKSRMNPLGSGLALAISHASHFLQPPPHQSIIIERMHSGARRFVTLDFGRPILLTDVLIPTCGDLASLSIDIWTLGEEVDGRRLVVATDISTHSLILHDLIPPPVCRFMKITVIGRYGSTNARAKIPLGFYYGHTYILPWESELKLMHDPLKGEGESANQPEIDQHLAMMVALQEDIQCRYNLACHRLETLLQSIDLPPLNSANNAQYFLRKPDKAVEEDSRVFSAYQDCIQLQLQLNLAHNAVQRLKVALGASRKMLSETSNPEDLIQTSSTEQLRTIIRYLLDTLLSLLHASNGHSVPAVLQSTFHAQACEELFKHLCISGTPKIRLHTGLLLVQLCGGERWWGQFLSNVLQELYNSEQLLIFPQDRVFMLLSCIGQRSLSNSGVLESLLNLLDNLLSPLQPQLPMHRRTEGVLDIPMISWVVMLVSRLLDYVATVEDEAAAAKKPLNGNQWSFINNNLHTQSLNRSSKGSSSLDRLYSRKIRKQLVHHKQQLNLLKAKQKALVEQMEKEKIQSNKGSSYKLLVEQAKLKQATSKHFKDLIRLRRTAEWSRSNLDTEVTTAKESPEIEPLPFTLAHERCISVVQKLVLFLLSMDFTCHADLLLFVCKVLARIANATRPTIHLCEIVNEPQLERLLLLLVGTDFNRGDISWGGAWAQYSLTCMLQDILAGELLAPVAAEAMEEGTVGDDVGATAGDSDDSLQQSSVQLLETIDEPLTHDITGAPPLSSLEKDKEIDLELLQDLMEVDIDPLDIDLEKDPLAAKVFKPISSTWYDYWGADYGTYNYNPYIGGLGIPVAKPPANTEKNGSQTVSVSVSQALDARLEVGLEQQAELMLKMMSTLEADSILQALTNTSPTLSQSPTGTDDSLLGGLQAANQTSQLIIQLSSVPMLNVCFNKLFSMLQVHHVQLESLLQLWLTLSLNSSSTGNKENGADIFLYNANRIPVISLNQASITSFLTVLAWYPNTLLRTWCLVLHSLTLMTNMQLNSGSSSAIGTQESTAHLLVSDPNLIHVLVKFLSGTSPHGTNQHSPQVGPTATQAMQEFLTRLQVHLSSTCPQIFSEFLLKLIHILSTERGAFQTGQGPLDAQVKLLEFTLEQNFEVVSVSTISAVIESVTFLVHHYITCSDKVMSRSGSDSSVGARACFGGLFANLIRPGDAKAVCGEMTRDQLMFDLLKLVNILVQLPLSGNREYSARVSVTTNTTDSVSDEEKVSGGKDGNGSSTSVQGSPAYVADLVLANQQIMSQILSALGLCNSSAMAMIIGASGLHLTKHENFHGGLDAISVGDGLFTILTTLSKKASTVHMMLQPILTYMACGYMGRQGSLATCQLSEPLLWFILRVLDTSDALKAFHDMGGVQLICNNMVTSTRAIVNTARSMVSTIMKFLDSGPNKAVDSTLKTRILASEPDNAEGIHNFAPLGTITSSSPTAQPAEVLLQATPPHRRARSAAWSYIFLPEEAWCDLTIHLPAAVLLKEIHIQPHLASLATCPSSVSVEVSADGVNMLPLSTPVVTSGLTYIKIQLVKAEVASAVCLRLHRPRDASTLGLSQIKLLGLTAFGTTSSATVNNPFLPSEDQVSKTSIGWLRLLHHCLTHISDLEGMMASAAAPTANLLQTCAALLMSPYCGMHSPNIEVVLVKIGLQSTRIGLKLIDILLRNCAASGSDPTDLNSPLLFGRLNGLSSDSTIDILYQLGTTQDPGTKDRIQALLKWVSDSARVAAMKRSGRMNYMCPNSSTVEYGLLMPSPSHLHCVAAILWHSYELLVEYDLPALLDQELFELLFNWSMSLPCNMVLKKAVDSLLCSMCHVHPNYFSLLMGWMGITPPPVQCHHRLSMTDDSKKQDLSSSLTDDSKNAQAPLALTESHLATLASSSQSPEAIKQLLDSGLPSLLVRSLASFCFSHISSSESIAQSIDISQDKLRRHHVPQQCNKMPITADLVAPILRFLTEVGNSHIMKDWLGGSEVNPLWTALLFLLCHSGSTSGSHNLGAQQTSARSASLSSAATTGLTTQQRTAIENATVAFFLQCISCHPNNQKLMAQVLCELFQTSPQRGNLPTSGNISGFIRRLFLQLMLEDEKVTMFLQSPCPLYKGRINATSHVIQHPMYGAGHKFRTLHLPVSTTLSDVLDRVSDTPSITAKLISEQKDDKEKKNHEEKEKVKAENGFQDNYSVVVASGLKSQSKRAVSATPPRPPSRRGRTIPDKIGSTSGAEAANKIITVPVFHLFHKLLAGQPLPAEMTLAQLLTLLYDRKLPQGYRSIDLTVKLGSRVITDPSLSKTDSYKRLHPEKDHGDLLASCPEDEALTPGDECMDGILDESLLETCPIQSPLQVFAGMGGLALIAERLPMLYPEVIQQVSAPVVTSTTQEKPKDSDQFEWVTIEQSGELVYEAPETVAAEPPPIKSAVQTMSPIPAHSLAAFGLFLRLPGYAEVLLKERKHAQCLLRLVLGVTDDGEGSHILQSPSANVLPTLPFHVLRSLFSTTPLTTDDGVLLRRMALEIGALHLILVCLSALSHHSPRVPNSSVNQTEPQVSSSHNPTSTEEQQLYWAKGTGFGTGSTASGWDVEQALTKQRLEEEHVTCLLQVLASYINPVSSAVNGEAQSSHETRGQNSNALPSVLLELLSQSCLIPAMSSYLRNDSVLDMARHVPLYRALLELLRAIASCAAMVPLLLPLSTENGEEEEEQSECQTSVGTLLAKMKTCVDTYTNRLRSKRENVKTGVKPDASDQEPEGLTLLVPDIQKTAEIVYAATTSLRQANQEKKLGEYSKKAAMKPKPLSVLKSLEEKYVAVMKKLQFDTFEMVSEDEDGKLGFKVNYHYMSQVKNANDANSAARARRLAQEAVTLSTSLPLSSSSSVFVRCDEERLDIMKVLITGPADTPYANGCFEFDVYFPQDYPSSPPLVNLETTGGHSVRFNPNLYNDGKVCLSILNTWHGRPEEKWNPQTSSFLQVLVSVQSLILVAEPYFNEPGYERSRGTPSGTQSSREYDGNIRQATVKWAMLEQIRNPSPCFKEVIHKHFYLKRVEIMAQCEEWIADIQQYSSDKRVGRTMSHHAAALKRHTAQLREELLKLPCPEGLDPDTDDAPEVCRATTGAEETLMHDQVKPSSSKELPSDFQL

Tests used:
Test in all cases: affinity purification with mass spectrometry; biotinylated peptides (10 µg per 20 µl slurry) on streptavidin beads, incubated with 1 mg HeLa lysate (2 mg/ml) in 150 mM KCl, 75 mM HEPES pH 7.5, 1.5 mM EGTA, 1.5 mM MgCl2, 10% glycerol, 1 mM DTT, 0.1% NP-40; label-free MS, pairwise comparison of peptides, triplicates; only the target purified
[1] = molecular target: T1, NH2-…-KK-Biotin, peptide derived from the N-terminus of STXBP2 after MAP and DPP8/9 processing
T1 sequence (peptide, free N-terminus; biotin at the C-terminal KK): SGLKAVVGEKKK

[2] = molecular target: T2, NH2-…-KK-Biotin, peptide of the DPP8/9-processed N-terminus of human AK2 with the first residue of the IBM, serine, mutated to valine (human)
T2 sequence (peptide, free N-terminus; biotin at the C-terminal KK): VVPAAEPEYPKK

[3] = molecular target: T3, NH2-…-KK-Biotin, peptide of the N-terminus of human AK2 without DPP8/9 cleavage (human)
T3 sequence (peptide, free N-terminus; biotin at the C-terminal KK): APSVPAAEPEKK

[4] = molecular target: T4, NH2-…-KK-Biotin, peptide of the N-terminus of human AK2 without MAP processing (human)
T4 sequence (peptide, free N-terminus; biotin at the C-terminal KK): MAPSVPAAEPKK

[5] = molecular target: T5, NH2-…-KK-Biotin, peptide of the N-terminus of mouse AK2 as it would exist after DPP8/9 cleavage (mouse)
T5 sequence (peptide, free N-terminus; biotin at the C-terminal KK): NVLASEPEIPKK

[6] = molecular target: T6, NH2-…-KK-Biotin, peptide of the partially processed (MAP-processed) N-terminus of EIF2A (human)
T6 sequence (peptide, free N-terminus; biotin at the C-terminal KK): APSTPLLTVRKK

[7] = molecular target: T7, NH2-…-KK-Biotin, peptide of the unprocessed N-terminus of EIF2A (human)
T7 sequence (peptide, free N-terminus; biotin at the C-terminal KK): MAPSTPLLTVKK

binding [1]	binding [2]	binding [3]	binding [4]	binding [5]	binding [6]	binding [7]	Substance
no binding	no binding	no binding	no binding	no binding	no binding	no binding	BIRC3 (from UniProt Q13489 1-604)
–	–	–	–	binds	–	–	UBR5 (from UniProt O95071 1-2799)
no binding	no binding	–	no binding	no binding	no binding	no binding	XIAP (from UniProt P98170 1-497)
no binding	no binding	no binding	no binding	no binding	no binding	no binding	BIRC6 (from UniProt Q9NR09 1-4857)
